In publication doi:10.1101/2023.01.13.523841:
Like-named read-outs stand apart in the source and are kept apart here. No constants are given. Whether binding was seen depends on the method and setting. For some of these results: In cells and extracts the contact can be indirect. Some results given as binding are weak or reduced against the parent protein; the word gives no strength. Where a sequence is shown, tags or fusion partners need not be part of it.

Amino acid sequences for entries named in this document (tags omitted).
UniProt O22467: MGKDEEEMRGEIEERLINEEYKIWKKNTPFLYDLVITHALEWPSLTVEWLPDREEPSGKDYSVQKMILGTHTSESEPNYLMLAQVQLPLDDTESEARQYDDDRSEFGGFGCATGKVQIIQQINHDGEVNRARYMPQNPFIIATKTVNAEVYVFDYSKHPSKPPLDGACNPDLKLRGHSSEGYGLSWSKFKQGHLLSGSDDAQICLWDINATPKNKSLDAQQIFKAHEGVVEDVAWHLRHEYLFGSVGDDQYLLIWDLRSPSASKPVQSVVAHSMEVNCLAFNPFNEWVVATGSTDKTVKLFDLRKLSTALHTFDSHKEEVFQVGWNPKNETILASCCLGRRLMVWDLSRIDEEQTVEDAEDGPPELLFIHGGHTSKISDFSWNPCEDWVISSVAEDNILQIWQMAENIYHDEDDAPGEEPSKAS

T1: ALFIN LIKE 3 (AL3), yeast two-hybrid fusion in pBridge or pGADT7 (Arabidopsis thaliana) (UniProt Q9M2B4)
T1 sequence: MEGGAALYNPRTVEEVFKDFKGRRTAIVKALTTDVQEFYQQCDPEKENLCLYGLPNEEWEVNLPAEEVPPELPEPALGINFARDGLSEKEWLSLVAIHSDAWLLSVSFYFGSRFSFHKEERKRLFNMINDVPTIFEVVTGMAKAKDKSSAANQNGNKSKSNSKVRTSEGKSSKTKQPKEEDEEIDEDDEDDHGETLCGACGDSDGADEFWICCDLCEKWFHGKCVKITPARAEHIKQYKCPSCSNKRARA

B1: CLF, yeast two-hybrid fusion (protein, UniProt P93831 1-902)
chain: MASEASPSSSATRSEPPKDSPAEERGPASKEVSEVIESLKKKLAADRCISIKKRIDENKKNLFAITQSFMRSSMERGGSCKDGSDLLVKRQRDSPGMKSGIDESNNNRYVEDGPASSGMVQGSSVPVKISLRPIKMPDIKRLSPYTTWVFLDRNQRMTEDQSVVGRRRIYYDQTGGEALICSDSEEEAIDDEEEKRDFLEPEDYIIRMTLEQLGLSDSVLAELASFLSRSTSEIKARHGVLMKEKEVSESGDNQAESSLLNKDMEGALDSFDNLFCRRCLVFDCRLHGCSQDLIFPAEKPAPWCPPVDENLTCGANCYKTLLKSGRFPGYGTIEGKTGTSSDGAGTKTTPTKFSSKLNGRKPKTFPSESASSNEKCALETSDSENGLQQDTNSDKVSSSPKVKGSGRRVGRKRNKNRVAERVPRKTQKRQKKTEASDSDSIASGSCSPSDAKHKDNEDATSSSQKHVKSGNSGKSRKNGTPAEVSNNSVKDDVPVCQSNEVASELDAPGSDESLRKEEFMGETVSRGRLATNKLWRPLEKSLFDKGVEIFGMNSCLIARNLLSGFKSCWEVFQYMTCSENKASFFGGDGLNPDGSSKFDINGNMVNNQVRRRSRFLRRRGKVRRLKYTWKSAAYHSIRKRITEKKDQPCRQFNPCNCKIACGKECPCLLNGTCCEKYCGCPKSCKNRFRGCHCAKSQCRSRQCPCFAADRECDPDVCRNCWVIGGDGSLGVPSQRGDNYECRNMKLLLKQQQRVLLGISDVSGWGAFLKNSVSKHEYLGEYTGELISHKEADKRGKIYDRENCSFLFNLNDQFVLDAYRKGDKLKFANHSPEPNCYAKVIMVAGDHRVGIFAKERILAGEELFYDYRYEPDRAPAWAKKPEAPGSKKDENVTPSVGRPKKLA
B2: LIKE HETEROCHROMATIN 1 (LHP1), yeast two-hybrid fusion (protein, UniProt Q946J8 1-445)
chain: MKGASGAVKKKPQVLNEAGEAETAVETVGESRKISGDGGFGSDDGGGGGGGGSGESILREIGDDRPTEDGDEEEEEDEDEDDGGDEEDEEGEGEGGQEERPKLDEGFYEIEAIRRKRVRKGKVQYLIKWRGWPETANTWEPLENLQSIADVIDAFEGSLKPGKPGRKRKRKYAGPHSQMKKKQRLTSTSHDATEKSDSSTSLNNSSLPDIPDPLDLSGSSLLNRDVEAKNAYVSNQVEANSGSVGMARQVRLIDNEKEYDPTLNELRGPVNNSNGAGCSQGGGIGSEGDNVRPNGLLKVYPKELDKNSRFIGAKRRKSGSVKRFKQDGSTSNNHTAPTDQNLTPDLTTLDSFGRIARMGNEYPGVMENCNLSQKTKIEELDITKILKPMSFTASVSDNVQEVLVTFLALRSDGKEALVDNRFLKAHNPHLLIEFYEQHLKYNRTP
B3: LIKE HETEROCHROMATIN 1 (LHP1), BiFC fusion in pUC-SPYCE (cYFP-X) (protein, UniProt Q946J8 1-445)
chain: B2 chain

Columns and labels:
[1] = molecular target: T1, ALFIN LIKE 3 (AL3), yeast two-hybrid fusion in pBridge or pGADT7 (Arabidopsis thaliana); assay: two-hybrid
[2] = molecular target: T1, ALFIN LIKE 3 (AL3), yeast two-hybrid fusion in pBridge or pGADT7 (Arabidopsis thaliana); assay: two-hybrid; remark: listed apart in the source
[3] = molecular target: ALFIN LIKE 3 (AL3), BiFC fusion in pUC-SPYNE (nYFP-X) (Arabidopsis thaliana) (UniProt Q9M2B4); assay: split reporter

Row | Molecule | binding [2] | also measured
1 | MSI1, yeast two-hybrid fusion (from UniProt O22467 1-424) | – | binding [1]: no binding
2 | B1 | no binding | –
3 | B2 | binds | –
4 | B3 | – | binding [3]: binds
